# Source: PubChem BioAssay AID758 (NMMLSC, 2007)
# Among all 190,000 compounds or so, about 110 (0.058%) were called active. This list was built around the results that the source calls inconclusive (neither active nor inactive); the mix of calls is not that of the screen.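 How the source made its calls: active means fluorescent GTP binding to Rab7 beads changed by at least 20 points from the 100% baseline, either direction, mostly lower; inconclusive means compound itself probably fluorescent, or too few beads counted; inactive means the rest.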
# Test system: Rab7 GTPase wild type (dog), Bodipy-FL-GTP binding
# Assay: modulators of GTP binding to Rab7, primary screen, biochemical, wildtype, multiplex bead flow cytometry (AID 758);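 further: median green fluorescence of bound Bodipy-FL-GTP per Rab7 bead population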
# Details: GST-Rab7 beads, fluorescent GTP binding, at 10 µM, actives lie on both sides, untreated = 100%, excess cold GTP = 0%
row,Compound,GTP binding activity (percent of control)
1,COc1cccc(NC(=O)c2cc(OC)c(OC)c(OC)c2Br)c1,inactive: 100%
2,CCOC(=O)N1CCN(C(=O)CCc2ccc(S(=O)(=O)NCCc3ccccc3)cc2)CC1,active: 20%
3,CCn1c(SCc2ccc(C#N)cc2)nnc1-c1cccc(Cl)c1,inconclusive: 89%
4,CC1CC1c1ccc(/C=C(\C#N)C(=O)Nc2cccc(Cl)c2Cl)o1 (configuration not stated),inactive: 99%
5,CCOc1ccccc1-n1c(C)nc2cc(C(=O)O)ccc21,inconclusive: 105%
6,Cc1nnc(SCc2cccc(Cl)c2)n(N)c1=O,inconclusive: 95%
7,Cc1sc2nc(SCC(=O)NCc3ccco3)n(CCc3ccccc3)c(=O)c2c1C,inconclusive: 104%
8,CCOC(=O)C1=C(C)OC(N)=C(C#N)C1c1cc2c(cc1[N+](=O)[O-])OCO2 (configuration not stated),inactive: 98%
9,CSCCCNC(=S)N1CCc2ccccc2C1,inactive: 97%
10,CC(C)C(=O)Nc1ccc(C(=O)N/N=C/C2CC3C=CC2C3)cc1 (configuration not stated),inconclusive: 102%
11,COc1cccc(-c2nn3c(-c4ccccn4)nnc3s2)c1,inconclusive: 94%
12,O=C(Nc1c2c(nn1-c1ccc(F)cc1)CS(=O)C2)c1ccc(S(=O)(=O)N2CCOCC2)cc1 (configuration not stated),inactive: 102%
13,CC(=O)CSc1ncnc2c1cnn2-c1ccccc1,inactive: 101%
14,CC(C)c1ccccc1NC(=O)COC(=O)c1ccc(Cl)c(S(=O)(=O)N2CCCCCC2)c1,inactive: 98%
15,CCNC(=O)Nc1ccc(-n2nc(C)c(C(=O)OCC)c2C)nc1,inactive: 99%
16,CCC(C)(C)NC(=O)C1CCN(S(=O)(=O)c2cccs2)CC1,inconclusive: 189%
17,CCC(C)N1C(=O)S/C(=C/c2ccc(N3CCOCC3)cc2C)C1=O (configuration not stated),inconclusive: 104%
18,COc1ccc(NS(=O)(=O)c2csc(C(=O)Nc3ccccc3)c2)cc1,inconclusive: 96%
19,Cc1ccnc(NC(c2ccccc2O)c2oc(CO)cc(=O)c2O)c1 (configuration not stated),inactive: 102%
20,NC(=O)N1CCN(C(=O)c2ccco2)CC1,inconclusive: 104%
21,COc1cc2[nH]c(=S)nc(NCCc3ccc(C)cc3)c2cc1OC,active: 69%
22,O=c1c2c(nc3c(-c4ccc(Cl)cc4)c[nH]n13)CCC2,inconclusive: 80%
23,COc1ccc(S(=O)(=O)Cc2ccc(C(=O)N3CCN(c4cc(Cl)ccc4C)CC3)o2)cc1,active: 77%
24,O=Cc1c(Cl)[nH]c(=O)n1-c1ccccc1,inactive: 97%

row,Compound,GTP binding activity (percent of control)
1,O=c1oc2c(O)c(O)cc3c(=O)oc4c(O)c(O)cc1c4c23,inconclusive: 90%
2,CCOc1cc(/C=N/NC(=O)C(C)Sc2ccccc2)ccc1O (configuration not stated),inactive: 92%
3,CCOC(=O)c1c(NC(=O)/C=C/c2ccc3c(c2)OCO3)sc(C)c1C,inactive: 100%
4,O=C(/C(C=Nc1ccc(F)cc1)=C(/O)c1ccco1)C(F)(F)F,inactive: 100%
5,CC(=O)N=c1sc2nc3ccccc3nc2n1N(C(C)=O)C(C)=O,inconclusive: 91%
6,CC(C)OC(=O)CCCCCN1C(=O)CSC1=S,inconclusive: 98%
7,Cc1ccc(NC(=O)N/C=C/c2ccccc2)cc1,inconclusive: 94%
8,c1ccc2oc(-c3csc(N4CCOCC4)n3)cc2c1,inactive: 97%
9,CC(=O)Nc1ccc(NC(=O)C2CCN(C(=O)c3cccs3)CC2)cc1,inactive: 97%
10,Cc1c(F)cccc1NS(=O)(=O)c1ccc2c(c1)c(=O)n(C)c(=O)n2C,inactive: 107%
11,CNC(=S)Nc1cc(C)ccc1OC(F)F,inconclusive: 104%
12,N#Cc1cc2c(nc1SCc1nc3ccccc3[nH]1)CCC2,inconclusive: 92%
13,COc1ccc(CNC(=O)c2c(O)c3ccccc3n(C)c2=O)cc1OC,inconclusive: 95%
14,COc1c(C)cccc1C(=O)NC(=S)Nc1ccc2c(c1)Cc1ccccc1-2,inactive: 83%
15,Cc1cc(Br)ccc1NC(=O)CN1C(=S)NC(C)(C)CC1C (configuration not stated),inconclusive: 97%
16,COc1ccc(NC(=O)CCN2CCN(S(=O)(=O)c3ccc(Cl)cc3)CC2)cc1,inconclusive: 93%
17,Cc1cc(=O)oc2c3c4c(cc12)OCCN4CCC3,inconclusive: 95%
18,COc1ccc(C)cc1-n1nnnc1SCc1cn2ccsc2n1,inactive: 103%
19,FC(F)(F)c1cccc(Oc2nc(-c3ccccc3)nnc2C(F)(F)F)c1,inconclusive: 107%
20,CC(=O)c1cccc(N(C(=O)CNC(=O)c2ccco2)C(C(=O)NCc2ccco2)c2ccccc2)c1 (configuration not stated),inactive: 103%
21,CC(C(=O)NN=C(c1ccccc1)c1ccccc1)N1CCCC1 (configuration not stated),inconclusive: 98%
22,O=C(O)CC/C(=C\c1ccc(N2CCCC2)c([N+](=O)[O-])c1)c1nc2ccccc2s1,inactive: 81%
23,CCCOc1ccc(N2C(=O)CC(N(O)c3ccccc3)C2=O)cc1 (configuration not stated),inconclusive: 96%

# Reprinted at random: 3 entries already listed
row,Compound,GTP binding activity (percent of control)
8,c1ccc2oc(-c3csc(N4CCOCC4)n3)cc2c1,inactive: 97%
19,FC(F)(F)c1cccc(Oc2nc(-c3ccccc3)nnc2C(F)(F)F)c1,inconclusive: 107%
5,CC(=O)N=c1sc2nc3ccccc3nc2n1N(C(C)=O)C(C)=O,inconclusive: 91%
